Some results were stated once for a whole list of compounds, not compound by compound.
Target: wild-type un-phosphorylated FGFR3 (Homo sapiens, UniProt P22607)
Experiment: FGFR Enzymatic Assay (FRET peptide phosphorylation), FGFR3
Conditions: in some embodiments

Chains of the proteins cited; added tags and fusions are not shown. Residues count along the entry.
UniProt P22607, 23-806: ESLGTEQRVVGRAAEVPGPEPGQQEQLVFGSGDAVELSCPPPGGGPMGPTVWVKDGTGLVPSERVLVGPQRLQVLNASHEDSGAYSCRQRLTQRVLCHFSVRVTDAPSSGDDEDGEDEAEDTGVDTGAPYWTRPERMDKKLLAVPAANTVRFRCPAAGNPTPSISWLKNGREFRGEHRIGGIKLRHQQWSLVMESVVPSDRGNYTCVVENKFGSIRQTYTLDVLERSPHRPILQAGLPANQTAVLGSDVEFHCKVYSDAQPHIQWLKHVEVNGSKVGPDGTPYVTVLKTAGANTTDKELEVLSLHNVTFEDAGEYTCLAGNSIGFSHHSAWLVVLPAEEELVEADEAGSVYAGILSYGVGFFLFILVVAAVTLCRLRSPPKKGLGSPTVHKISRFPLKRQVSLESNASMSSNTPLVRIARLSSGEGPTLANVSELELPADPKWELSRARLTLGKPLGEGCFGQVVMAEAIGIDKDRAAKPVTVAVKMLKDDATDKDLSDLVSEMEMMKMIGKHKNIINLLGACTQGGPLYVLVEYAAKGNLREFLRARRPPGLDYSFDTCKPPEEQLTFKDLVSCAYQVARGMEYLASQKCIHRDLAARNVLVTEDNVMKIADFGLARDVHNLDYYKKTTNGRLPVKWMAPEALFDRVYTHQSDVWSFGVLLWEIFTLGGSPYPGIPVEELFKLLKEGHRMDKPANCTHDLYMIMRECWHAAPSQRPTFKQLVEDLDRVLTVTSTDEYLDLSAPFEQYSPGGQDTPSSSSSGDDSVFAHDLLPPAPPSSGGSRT

| Compound | inhibitory activity for FGFR3 over the inhibitory activity of the compounds of US2018/0072718 for FGFR3 [fold] |
| --- | --- |
| Cc1cccc(-c2nc3c(-c4cnn(C)c4)n[nH]c3cc2CO)c1C [Example 38, (5-(2,3-Dimethylphenyl)-3-(1-methyl-1H-pyrazol-4-yl)-1H-pyrazolo[4,3-b]pyridin-6-yl)methanol] | ≥ 10 |
| Cc1cc2[nH]nc(-c3cnn(C)c3)c2nc1-c1cccc(C)c1C [Example 40, 5-(2,3-Dimethylphenyl)-6-methyl-3-(1-methyl-1H-pyrazol-4-yl)-1H-pyrazolo[4,3-b]pyridine] | ≥ 10 |
| COc1cc2[nH]nc(-c3ccc(N4CCN(C)CC4)nc3)c2nc1-c1cccc(C)c1C [Example 41, 5-(2,3-Dimethylphenyl)-6-methoxy-3-(6-(4-methylpiperazin-1-yl)pyridin-3-yl)-1H-pyrazolo[4,3-b]pyridine] | ≥ 10 |
| CCN1CCN(c2ccc(-c3n[nH]c4cc(OC)c(-c5cccc(C)c5C)nc34)cn2)CC1 [Example 42, 5-(2,3-Dimethylphenyl)-3-(6-(4-ethylpiperazin-1-yl)pyridin-3-yl)-6-methoxy-1H-pyrazolo[4,3-b]pyridine] | ≥ 10 |
| COc1cc2[nH]nc(-c3ccc(N4CCN(C(C)=O)CC4)nc3)c2nc1-c1cccc(C)c1C [Example 43, 1-(4-(5-(5-(2,3-Dimethylphenyl)-6-methoxy-1H-pyrazolo[4,3-b]pyridin-3-yl)pyridin-2-yl)piperazin-1-yl)ethan-1-one] | ≥ 10 |
| COc1cc2[nH]nc(-c3ccc(N4CCOCC4)nc3)c2nc1-c1cccc(C)c1C [Example 44, 4-(5-(5-(2,3-Dimethylphenyl)-6-methoxy-1H-pyrazolo[4,3-b]pyridin-3-yl)pyridin-2-yl)morpholine] | ≥ 10 |
| COc1cc2[nH]nc(-c3ccc(N4CCN(C)C(=O)C4)nc3)c2nc1-c1cccc(C)c1C [Example 45, 4-(5-(5-(2,3-Dimethylphenyl)-6-methoxy-1H-pyrazolo[4,3-b]pyridin-3-yl)pyridin-2-yl)-1-methylpiperazin-2-one] | ≥ 10 |
| COc1cc2[nH]nc(-c3ccc(N4CCC(O)CC4)nc3)c2nc1-c1cccc(C)c1C [Example 46, 1-(5-(5-(2,3-Dimethylphenyl)-6-methoxy-1H-pyrazolo[4,3-b]pyridin-3-yl)pyridin-2-yl)piperidin-4-ol] | ≥ 10 |
| COc1cc2[nH]nc(-c3ccc(N4CCN(C)[C@H](C)C4)nc3)c2nc1-c1cccc(C)c1C [Example 47, (R)-5-(2,3-Dimethylphenyl)-3-(6-(3,4-dimethylpiperazin-1-yl)pyridin-3-yl)-6-methoxy-1H-pyrazolo[4,3-b]pyridine] | ≥ 10 |
| [2H]C([2H])([2H])Oc1cc2[nH]nc(-c3ccc(N4CCN(C)CC4)nc3)c2nc1-c1cccc(C)c1C [Example 48, 5-(2,3-Dimethylphenyl)-6-(methoxy-d3)-3-(6-(4-methylpiperazin-1-yl)pyridin-3-yl)-1H-pyrazolo[4,3-b]pyridine] | ≥ 10 |
| COc1cc2[nH]nc(-c3ccc(N4C[C@@H]5C[C@H]4CN5C)nc3)c2nc1-c1cccc(C)c1C [Example 49, 5-(2,3-Dimethylphenyl)-6-methoxy-3-(6-((1S,4S)-5-methyl-2,5-diazabicyclo[2.2.1]heptan-2-yl)pyridin-3-yl)-1H-pyrazolo[4,3-b]pyridine] | ≥ 10 |
| COc1cc2[nH]nc(-c3ccc(N4CCC(C(=O)N(C)C)CC4)nc3)c2nc1-c1cccc(C)c1C [Example 50, 1-(5-(5-(2,3-Dimethylphenyl)-6-methoxy-1H-pyrazolo[4,3-b]pyridin-3-yl)pyridin-2-yl)-N,N-dimethylpiperidine-4-carboxamide] | ≥ 10 |
| COc1cc2[nH]nc(-c3ccc(N4CCC(C)(C(=O)O)CC4)nc3)c2nc1-c1cccc(C)c1C [Example 51, 1-(5-(5-(2,3-Dimethylphenyl)-6-methoxy-1H-pyrazolo[4,3-b]pyridin-3-yl)pyridin-2-yl)-4-methylpiperidine-4-carboxylic acid] | ≥ 10 |
| COc1cc2[nH]nc(-c3cnn(C4CN(C(=O)N(C)C)C4)c3)c2nc1-c1cccc(C)c1F [Example 52, 3-(4-(5-(2-Fluoro-3-methylphenyl)-6-methoxy-1H-pyrazolo[4,3-b]pyridin-3-yl)-1H-pyrazol-1-yl)-N,N-dimethylazetidine-1-carboxamide] | ≥ 10 |
| COc1cc2[nH]nc(-c3cnn([C@H]4CC[C@@H](NC(C)=O)CC4)c3)c2nc1-c1cccc2c1CCC2 [Example 53, N-((cis)-4-(4-(5-(2,3-Dihydro-1H-inden-4-yl)-6-methoxy-1H-pyrazolo[4,3-b]pyridin-3-yl)-1H-pyrazol-1-yl)cyclohexyl)acetamide] | ≥ 10 |
| COc1cc2[nH]nc(-c3ccc(N4CCN(C)CC4C)nc3)c2nc1-c1cccc2c1CCC2 (centres unmarked) [Example 54, 5-(2,3-Dihydro-1H-inden-4-yl)-3-(6-(2,4-dimethylpiperazin-1-yl)pyridin-3-yl)-6-methoxy-1H-pyrazolo[4,3-b]pyridine] | ≥ 10 |
| COc1cc2[nH]nc(-c3ccc(N4CCN(C(C)=O)CC4)nc3)c2nc1-c1cccc(CC#N)c1C [Example 55, 2-(3-(3-(6-(4-Acetylpiperazin-1-yl)pyridin-3-yl)-6-methoxy-1H-pyrazolo[4,3-b]pyridin-5-yl)-2-methylphenyl)acetonitrile] | ≥ 10 |
| COc1cc2[nH]nc(-c3ccc(N4CCOCC4)nc3)c2nc1-c1cccc(CC#N)c1C [Example 56, 2-(3-(6-Methoxy-3-(6-morpholinopyridin-3-yl)-1H-pyrazolo[4,3-b]pyridin-5-yl)-2-methylphenyl)acetonitrile] | ≥ 10 |
| COc1cc2[nH]nc(-c3ccc(N4CCCC4)nc3)c2nc1-c1cccc2c1CCC2 [Example 57, 5-(2,3-Dihydro-1H-inden-4-yl)-6-methoxy-3-(6-(pyrrolidin-1-yl)pyridin-3-yl)-1H-pyrazolo[4,3-b]pyridine] | ≥ 10 |
| COc1cc2[nH]nc(-c3ccc(N4CCOCC4)nc3)c2nc1-c1cccc2c1CCC2 [Example 58, 4-(5-(5-(2,3-Dihydro-1H-inden-4-yl)-6-methoxy-1H-pyrazolo[4,3-b]pyridin-3-yl)pyridin-2-yl)morpholine] | ≥ 10 |
| CCNC(=O)N1CCN(c2ccc(-c3n[nH]c4cc(OC)c(-c5cccc6c5CCC6)nc34)cn2)CC1 [Example 59, 4-(5-(5-(2,3-Dihydro-1H-inden-4-yl)-6-methoxy-1H-pyrazolo[4,3-b]pyridin-3-yl)pyridin-2-yl)-N-ethylpiperazine-1-carboxamide] | ≥ 10 |
| COc1cc2[nH]nc(-c3ccc(N4CCN(C(N)=O)CC4)nc3)c2nc1-c1cccc2c1CCC2 [Example 60, 4-(5-(5-(2,3-Dihydro-1H-inden-4-yl)-6-methoxy-1H-pyrazolo[4,3-b]pyridin-3-yl)pyridin-2-yl)piperazine-1-carboxamide] | ≥ 10 |
| COc1cc2[nH]nc(-c3ccc(N4CCN(C(C)=O)CC4)cc3)c2nc1-c1cccc2c1CCC2 [Example 61, 1-(4-(4-(5-(2,3-Dihydro-1H-inden-4-yl)-6-methoxy-1H-pyrazolo[4,3-b]pyridin-3-yl)phenyl)piperazin-1-yl)ethan-1-one] | ≥ 10 |
| COc1cc2[nH]nc(-c3ccc(N4CCN(C(C)C)CC4)cc3)c2nc1-c1cccc2c1CCC2 [Example 62, 5-(2,3-Dihydro-1H-inden-4-yl)-3-(4-(4-isopropylpiperazin-1-yl)phenyl)-6-methoxy-1H-pyrazolo[4,3-b]pyridine] | ≥ 10 |
| CCN1CCN(c2ccc(-c3n[nH]c4cc(OC)c(-c5cccc6c5CCC6)nc34)cc2)CC1 [Example 63, 5-(2,3-Dihydro-1H-inden-4-yl)-3-(4-(4-ethylpiperazin-1-yl)phenyl)-6-methoxy-1H-pyrazolo[4,3-b]pyridine] | ≥ 10 |
| COc1cc2[nH]nc(-c3ccc(N4CCN(C(C)=O)CC4)nc3)c2nc1-c1cccc2c1CCC2 [Example 64, 1-(4-(5-(5-(2,3-Dihydro-1H-inden-4-yl)-6-methoxy-1H-pyrazolo[4,3-b]pyridin-3-yl)pyridin-2-yl)piperazin-1-yl)ethan-1-one] | ≥ 10 |
| COc1cc2[nH]nc(-c3ccc(N4CCC5(CC4)CNC(=O)O5)nc3)c2nc1-c1cccc(C)c1C [Example 65, 8-(5-(5-(2,3-Dimethylphenyl)-6-methoxy-1H-pyrazolo[4,3-b]pyridin-3-yl)pyridin-2-yl)-1-oxa-3,8-diazaspiro[4.5]decan-2-one] | ≥ 10 |
| COc1cc2[nH]nc(-c3cnn(Cc4ccccn4)c3)c2nc1-c1cccc(C)c1C [Example 66, 5-(2,3-Dimethylphenyl)-6-methoxy-3-(1-(pyridin-2-ylmethyl)-1H-pyrazol-4-yl)-1H-pyrazolo[4,3-b]pyridine] | ≥ 10 |
| COc1cc2[nH]nc(-c3cnn(C4CC4)c3)c2nc1-c1cccc(C)c1C [Example 67, 3-(1-Cyclopropyl-1H-pyrazol-4-yl)-5-(2,3-dimethylphenyl)-6-methoxy-1H-pyrazolo[4,3-b]pyridine] | ≥ 10 |
